The results in this text go back to paper PMC6166933.

Protein sequences, listed by entry. Tags and fused reporters are not part of them.
UniProt P26196: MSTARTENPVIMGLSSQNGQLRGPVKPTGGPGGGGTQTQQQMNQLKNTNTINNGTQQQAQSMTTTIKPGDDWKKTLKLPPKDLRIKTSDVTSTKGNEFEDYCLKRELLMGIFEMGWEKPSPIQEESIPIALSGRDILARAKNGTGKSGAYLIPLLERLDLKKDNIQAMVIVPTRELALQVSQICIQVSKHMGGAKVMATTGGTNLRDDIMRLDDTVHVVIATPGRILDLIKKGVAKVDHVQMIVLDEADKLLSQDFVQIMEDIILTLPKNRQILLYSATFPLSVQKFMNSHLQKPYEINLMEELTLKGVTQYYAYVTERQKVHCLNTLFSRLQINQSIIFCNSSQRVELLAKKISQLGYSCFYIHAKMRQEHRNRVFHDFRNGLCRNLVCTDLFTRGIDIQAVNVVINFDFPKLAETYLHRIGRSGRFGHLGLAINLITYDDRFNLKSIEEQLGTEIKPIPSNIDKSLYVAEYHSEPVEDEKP
UniProt P10155: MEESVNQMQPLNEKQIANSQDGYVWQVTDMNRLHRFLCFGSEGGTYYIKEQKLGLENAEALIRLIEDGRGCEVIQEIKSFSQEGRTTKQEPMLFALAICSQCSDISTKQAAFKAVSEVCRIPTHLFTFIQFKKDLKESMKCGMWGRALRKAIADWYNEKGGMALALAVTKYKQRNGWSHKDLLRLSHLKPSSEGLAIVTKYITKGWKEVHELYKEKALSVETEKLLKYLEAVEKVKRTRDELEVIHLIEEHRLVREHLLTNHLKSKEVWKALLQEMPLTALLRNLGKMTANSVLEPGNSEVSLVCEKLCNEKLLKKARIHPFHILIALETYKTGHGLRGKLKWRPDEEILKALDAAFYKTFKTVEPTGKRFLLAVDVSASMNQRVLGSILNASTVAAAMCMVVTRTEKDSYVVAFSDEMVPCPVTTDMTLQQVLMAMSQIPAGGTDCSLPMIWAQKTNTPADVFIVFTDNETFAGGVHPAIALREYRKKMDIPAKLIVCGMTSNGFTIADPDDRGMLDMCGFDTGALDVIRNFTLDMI
UniProt Q8NDV7: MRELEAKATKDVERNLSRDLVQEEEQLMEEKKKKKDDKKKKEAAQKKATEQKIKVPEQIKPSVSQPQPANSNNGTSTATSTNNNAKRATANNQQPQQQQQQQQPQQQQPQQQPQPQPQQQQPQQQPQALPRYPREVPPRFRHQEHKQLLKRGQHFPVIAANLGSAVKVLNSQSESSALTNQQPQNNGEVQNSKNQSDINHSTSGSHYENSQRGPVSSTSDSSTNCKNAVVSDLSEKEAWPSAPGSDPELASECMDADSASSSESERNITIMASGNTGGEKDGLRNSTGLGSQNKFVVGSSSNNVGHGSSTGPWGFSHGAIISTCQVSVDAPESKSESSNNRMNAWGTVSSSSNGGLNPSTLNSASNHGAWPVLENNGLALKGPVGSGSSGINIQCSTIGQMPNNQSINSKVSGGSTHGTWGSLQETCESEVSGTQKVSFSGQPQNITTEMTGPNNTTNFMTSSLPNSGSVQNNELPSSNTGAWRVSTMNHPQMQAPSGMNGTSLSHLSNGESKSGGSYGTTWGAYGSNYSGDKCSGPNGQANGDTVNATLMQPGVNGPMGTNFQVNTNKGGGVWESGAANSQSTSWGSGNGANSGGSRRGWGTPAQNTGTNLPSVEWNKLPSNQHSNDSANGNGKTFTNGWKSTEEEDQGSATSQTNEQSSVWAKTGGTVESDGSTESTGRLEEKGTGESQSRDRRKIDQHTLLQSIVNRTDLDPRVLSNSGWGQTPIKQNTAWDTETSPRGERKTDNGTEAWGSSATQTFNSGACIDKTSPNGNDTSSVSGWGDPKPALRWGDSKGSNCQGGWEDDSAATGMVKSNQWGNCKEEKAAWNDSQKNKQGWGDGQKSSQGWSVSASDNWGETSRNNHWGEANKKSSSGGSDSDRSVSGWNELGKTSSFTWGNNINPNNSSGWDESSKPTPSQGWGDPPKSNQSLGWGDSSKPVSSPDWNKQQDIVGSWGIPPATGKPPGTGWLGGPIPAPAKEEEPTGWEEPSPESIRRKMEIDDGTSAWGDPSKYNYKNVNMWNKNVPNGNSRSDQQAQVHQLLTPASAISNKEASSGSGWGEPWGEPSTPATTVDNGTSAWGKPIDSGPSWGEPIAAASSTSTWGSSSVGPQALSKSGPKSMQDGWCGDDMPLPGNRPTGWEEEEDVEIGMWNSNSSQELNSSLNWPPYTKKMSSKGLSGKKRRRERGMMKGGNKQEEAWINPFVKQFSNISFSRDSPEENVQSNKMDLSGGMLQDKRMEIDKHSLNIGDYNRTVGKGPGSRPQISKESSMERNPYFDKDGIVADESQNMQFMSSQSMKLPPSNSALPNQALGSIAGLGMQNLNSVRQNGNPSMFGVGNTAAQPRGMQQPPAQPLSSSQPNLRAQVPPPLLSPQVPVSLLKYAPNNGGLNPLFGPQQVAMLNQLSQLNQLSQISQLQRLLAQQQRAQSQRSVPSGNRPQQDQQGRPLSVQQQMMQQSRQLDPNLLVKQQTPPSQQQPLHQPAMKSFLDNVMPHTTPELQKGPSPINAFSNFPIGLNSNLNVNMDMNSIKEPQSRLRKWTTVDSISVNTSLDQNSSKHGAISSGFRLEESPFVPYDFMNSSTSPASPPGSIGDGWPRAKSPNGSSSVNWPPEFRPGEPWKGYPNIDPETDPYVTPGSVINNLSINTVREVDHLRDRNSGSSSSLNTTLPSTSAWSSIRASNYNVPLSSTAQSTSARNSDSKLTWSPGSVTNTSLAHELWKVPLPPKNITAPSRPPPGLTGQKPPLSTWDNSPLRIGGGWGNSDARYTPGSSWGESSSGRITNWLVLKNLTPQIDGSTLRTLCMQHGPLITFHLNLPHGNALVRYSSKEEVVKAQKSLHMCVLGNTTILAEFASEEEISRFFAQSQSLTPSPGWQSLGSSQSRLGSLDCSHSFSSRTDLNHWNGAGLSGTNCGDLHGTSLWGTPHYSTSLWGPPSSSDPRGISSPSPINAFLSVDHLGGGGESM

No constants are given. Whether binding was seen depends on the method and setting. Binding seen in cells or lysates may run through a third protein. Some results given as binding are weak or reduced against the parent protein; the word gives no strength.

This assay concerns the target DDX6 (human (endogenous in TIG-1)) (UniProt P26196). The assay can be described thus: co-IP; TIG-1 fibroblast protein lysates incubated with anti-RO60 or anti-DDX6 antibody-conjugated magnetic beads for 2 hr at 4°C, immunoblot; growth phase; also OSKM- and siRNA (siNeg, siRNY1)-treated cells on Day 3 (more RO60-DDX6 and less DDX6-TNRC6A after RNY1 knock-down).

On to “Ro 60-kDa protein (RO60) (from UniProt P10155 1-538)”, for which the binding result is listed as “binds”.
For TNRC6A (from UniProt Q8NDV7 1-1962) the value was “binds”.
